Measurements: PubChem BioAssay AID540256 (National Center for Advancing Translational Sciences (NCATS), 2011)
In all, about 300,000 compounds went through this assay and about 3,700 (1.2%) were called active. The shares of active, inactive and inconclusive entries below differ from those in the screen. Calls follow the shape of the full dose curve; tested in HEK293 cells. Potencies beside an inconclusive call are fits to weak or partial responses and may not hold up.

assay: qHTS for Inhibitors of binding or entry into cells for Lassa Virus; conditions: Lassa virus pseudotype entry inhibition, cell reporter; activity change, negative = inhibition: at 37.9 µM (top of the series) unless noted; also: nearly all actives have a fitted effect of over 50% in size
% is scaled to controls: 0 for no effect and ±100 for the full control effect; potency is read from the fitted curve at half-maximal effect.

Row | Compound | Potency | activity change, negative = inhibition
1 | CN(C)c1ccc(/C=N/NC(=O)C(=O)/C=C2\NC3(CCCC3)Cc3ccccc32)cc1 | inconclusive: 12.6 µM [inhibitor, single point] | –
2 | COc1cc(NC(=O)Nc2ccc(C)cc2)cc([N+](=O)[O-])c1 | inconclusive: 0.631 µM [inhibitor, single point] | –
3 | Cc1cc(CN(C)C(=O)c2cc(COc3ccc4ncccc4c3)on2)on1 | inconclusive: 35.5 µM [inhibitor, partial curve, poor fit] | –
4 | COc1ccccc1N1CCN(CCCCOc2ccc(F)cc2)CC1 | inconclusive: 6.51 µM [inhibitor, partial curve, poor fit] | –
5 | O=C(Cc1ccc(F)cc1)NCc1ccc2c(c1)CCN2C(=O)c1ccc(F)cc1 | inconclusive: 35.5 µM [inhibitor, single point] | –
6 | Cc1nn(-c2ccccc2)c(C)c1C(=O)Oc1ccccc1 | – | inactive: 9.97%
7 | COc1ccccc1NC(=O)Nc1ccc(Cc2ccncc2)cc1 | inconclusive: 1.26 µM [inhibitor, single point] | –
8 | Cc1ccc2nc(COc3ccccc3NC(=O)C(C)(C)C)cc(=O)n2c1 | – | inactive: -0.662% [at 46.1 µM]
9 | CCOC(=O)c1sc2nc(C)nc(N3CCCCC3C)c2c1C (centres undefined) | – | inactive: -0.358%
10 | NC(=S)N/N=C/c1ncc(C(F)(F)F)cc1Cl | inconclusive: 8.91 µM [inhibitor, partial curve, poor fit] | –
11 | Cc1ccc(CC(=O)NCCN2CCOCC2)cc1 | inconclusive: 35.5 µM [activator, single point] | –
12 | C=CCNc1nc(N2CCCC2)nc2ccccc12 | – | inactive: -5.58%
13 | CCOc1ccccc1N(C(=O)c1snc(C(N)=O)c1N)C(C(=O)NC1CCCC1)c1ccco1 (centres undefined) | inconclusive: 22.4 µM [inhibitor, single point] | –
14 | OCC[n+]1c2ccccc2nc2ccc(N3CCOCC3)cc21 | – | inactive: 4.37%
15 | CCc1ccccc1N(C(=O)c1snc(C(N)=O)c1N)C(C(=O)NCC1CCCO1)c1ccc(OC)c(OC)c1 (centres undefined) | inconclusive: 14.6 µM [inhibitor, partial curve, poor fit] | –
16 | CCCNS(=O)(=O)c1ccc(CCC(=O)N2CCN(c3ccc(F)cc3)CC2)cc1 | – | inactive: 3.91%
17 | CCOC(=O)c1c(-c2ccccc2)oc2ccc(N(C(C)=O)S(=O)(=O)c3ccc(CC)cc3)cc12 | inconclusive: 11.2 µM [inhibitor, partial curve, poor fit] | –
18 | CC(NC(=O)CCCCCCN1C(=O)c2ccccc2C1=O)c1ccc2c(c1)CCCC2 (centres undefined) | – | inactive: -4.83%
19 | Cc1cc2oc(=O)cc(CSc3nnc(-c4cccs4)o3)c2cc1C(C)C | inconclusive: 35.5 µM [inhibitor, single point] | –
20 | CC(C)c1nc(C(=O)N2CCc3c([nH]c4ccccc34)C2c2ccccn2)cs1 (centres undefined) | inconclusive: 22.4 µM [inhibitor, partial curve, poor fit] | –
21 | COC(=O)N/N=C/c1cc(Cl)c(OCc2ccccc2F)c(OC)c1 | inconclusive: 7.08 µM [inhibitor, partial curve, poor fit] | –
22 | CC12CCC(=O)N1C(C(=O)Nc1cc(S(=O)(=O)N3CCCCCC3)ccc1OCC(F)(F)F)CS2 (centres undefined) | inconclusive: 6.31 µM [inhibitor, single point] | –
23 | CCc1ccc(C(C)NC(=O)c2cc(C)oc2C)cc1 (centres undefined) | inconclusive: 29.1 µM [inhibitor, single point] | –

One compound at a time (already shown).
COc1ccccc1NC(=O)Nc1ccc(Cc2ccncc2)cc1 is listed as Potency: inconclusive: 1.26 µM [inhibitor, single point]
CC12CCC(=O)N1C(C(=O)Nc1cc(S(=O)(=O)N3CCCCCC3)ccc1OCC(F)(F)F)CS2 (centres undefined) is listed as Potency: inconclusive: 6.31 µM [inhibitor, single point]
COc1cc(NC(=O)Nc2ccc(C)cc2)cc([N+](=O)[O-])c1 is listed as Potency: inconclusive: 0.631 µM [inhibitor, single point]
Cc1ccc(CC(=O)NCCN2CCOCC2)cc1 is listed as Potency: inconclusive: 35.5 µM [activator, single point]

Further results follow.

Row | Compound | Potency | activity change, negative = inhibition
24 | COc1ccc(N=C2SC(CC(=O)Nc3ccccc3OC)C(=O)N2Cc2ccco2)cc1 (centres undefined) | active: 16.4 µM | –
25 | COc1ccc(-c2csc(NC(=S)NC(=O)c3ccc4ccccc4c3)n2)cc1OC | inconclusive: 6.31 µM [inhibitor, single point] | –
26 | Cc1cc(SCC(=O)N(C)C2CCS(=O)(=O)C2)nc2c(C)cccc12 (centres undefined) | inconclusive: 6.31 µM [inhibitor, partial curve, poor fit] | –
27 | Fc1cccc2sc(Nc3nc4cc5c(cc4s3)OCCO5)nc12 | inconclusive: 14.1 µM [inhibitor, partial curve, poor fit] | –
28 | COCC(C)n1c(C)cc(C(=O)COC(=O)c2c(NC(C)=O)sc(C)c2C)c1C (centres undefined) | inconclusive: 4.11 µM [inhibitor, single point] | –
29 | Cc1nn(C(=O)c2cccc(Cl)c2)c(C)c1S(=O)(=O)N1CCOCC1 | – | inactive: 29.4% [at 46.1 µM]
30 | COc1ccc(OC)c(NC(=O)CSc2ccc(-c3sc(C)nc3C)nn2)c1 | inconclusive: 10 µM [inhibitor, partial curve] | –
31 | Cc1nnc(SCC(=O)NC(C)(C)C)n1C1CCCCC1 | – | inactive: -2.7%
32 | Cc1ccc(C(=O)Nc2ccc3c(c2)OCCO3)cc1 | active: 2.82 µM | –
33 | Cc1cccc(CNCCc2c[nH]c3ccccc23)c1 | inconclusive: 35.5 µM [inhibitor, single point] | –
34 | COc1ccccc1NC(=O)Nc1cc(C(C)(C)C)nn1C | – | inactive: -4.11% [at 46.1 µM]
35 | CCc1ccc(/C=N/NC(=O)c2ccccn2)cc1 | active: 1.41 µM | –
36 | Cc1ccc(NC(=O)CSc2ccc(-c3ccccn3)nn2)cc1 | inconclusive: 35.5 µM [inhibitor, single point] | –
37 | Cc1ccccc1Nc1nnc(SCC(=O)c2cc3ccccc3o2)s1 | inconclusive: 7.31 µM [inhibitor, single point] | –
38 | COc1ccc(CCNC(=O)c2ccc3c(c2)N(Cc2ccc(F)cc2)C(=O)CS3)cc1OC | inconclusive: 11.2 µM [inhibitor, partial curve] | –
39 | O=C(NNc1nc2c(F)cccc2s1)c1ccc(F)cc1 | inconclusive: 35.5 µM [inhibitor, single point] | –
40 | CS(=O)(=O)c1ccc(C(=O)NCC(c2ccco2)N2CCCCC2)cc1 (centres undefined) | inconclusive: 35.5 µM [activator, single point] | –
41 | CC(C)CNC(=O)CO/N=C/c1ccccc1Cl | – | inactive: -6.21%
42 | Cc1ccc(C)c(N2CCN(C(=O)NCc3noc4ccc(C)cc34)CC2)c1 | inconclusive: 3.55 µM [inhibitor, single point] | –
43 | O=C(NCCc1ccccc1)C1CCC(CNS(=O)(=O)c2ccc(Cl)cc2)CC1 (centres undefined) | inconclusive: 14.1 µM [activator, single point] | –
44 | COc1ccc(-c2nc(N3CCOCC3)nc3n[nH]c(N)c23)cc1 | inconclusive: 8.2 µM [inhibitor, partial curve] | –
45 | CN(C)Cc1c(C#N)c2ccccc2n1C | inconclusive: 32.6 µM [inhibitor, single point] | –
46 | CCSc1ccccc1C(=O)Nc1ccc(-c2nc3ccccc3s2)c(O)c1 | inconclusive: 1 µM [activator, full curve, poor fit] | –

Row | Compound | Potency | activity change, negative = inhibition
47 | O=C(NCC1(O)CCCCC1)C1CCC(=O)N(Cc2cccc(C(F)(F)F)c2)C1 (centres undefined) | – | inactive: 7.09%
48 | O=C(O)Cn1cc(/C=C2\C(=O)NC(=O)N(Cc3ccco3)C2=O)c2ccccc21 | – | inactive: -18.8%
49 | Nc1ncnc(N)c1N=Nc1ccccc1 | inconclusive: 10 µM [inhibitor, partial curve, poor fit] | –
50 | COc1ccccc1NC(=O)c1nc[nH]c1C(=O)Nc1ccccc1OC | inconclusive: 2.31 µM [inhibitor, partial curve, poor fit] | –
51 | N#C/C(=C\c1ccc(O)c(O)c1)C(=O)NCCCNC(=O)/C(C#N)=C/c1ccc(O)c(O)c1 | inconclusive: 12.5 µM [activator, single point] | –
52 | COc1ccc(C(C)=O)cc1CSc1nnc(-c2ccc(Cl)cc2)n1-c1ccccc1 | inconclusive: 29.1 µM [inhibitor, single point] | –
53 | CCN(CCS(=O)(=O)c1ccc(Cl)cc1)C(=O)Nc1ccccc1 | inconclusive: 1 µM [inhibitor, single point] | –
54 | NS(=O)(=O)c1ccc(N=Nc2c(O)[nH]c3ccc(Cl)cc23)cc1 | active: 2.81 µM | –
55 | CCN(CC)S(=O)(=O)c1ccc2nc(NC(=O)c3ccco3)sc2c1 | inconclusive: 8.91 µM [activator, partial curve] | –
56 | CCc1cccc(NC(=O)C2CCC(CNS(=O)(=O)c3ccc(Br)s3)CC2)c1 (centres undefined) | – | inactive: 18.7% [at 46.1 µM]
57 | CCS(=O)(=O)N1Cc2ccccc2CC1C(=O)Nc1nccs1 (centres undefined) | inconclusive: 1.58 µM [activator, partial curve, poor fit] | –
58 | NC(=O)CSc1nc2ccccc2c(=O)n1CCc1ccccc1 | – | inactive: 12.3% [at 46.1 µM]
59 | CCc1cc(C(=O)Cc2ccc(F)cc2)c(O)cc1O | inconclusive: 8.91 µM [inhibitor, partial curve, poor fit] | –
60 | c1ccc(CN2CCN(c3ncnc4c3cnn4-c3ccccc3)CC2)cc1 | – | inconclusive: 9.11% [activator] [at 46.1 µM]
61 | O=C(NCCNC(=O)c1ccc([N+](=O)[O-])cc1)c1ccncc1 | – | inactive: -2.3%
62 | CCC1=Nc2cc(C(=O)NCCN(CC)CC)ccc2Sc2ccccc21 | inconclusive: 25.1 µM [inhibitor, single point] | –
63 | CC1=NN(C(N)=S)C(=O)C1N=Nc1ccc(Br)cc1 (centres undefined) | inconclusive: 6.31 µM [activator, single point] | –
64 | Cc1ccnc2nc(C(=O)Nc3nccs3)nn12 | – | inactive: 5.23%
65 | Cc1ccc(S(=O)(=O)Cc2ccc(C(=O)N3CCN(c4cccc(Cl)c4)CC3)o2)cc1 | inconclusive: 0.631 µM [inhibitor, full curve, poor fit] | –
66 | O=C(Cn1c(=O)n(-c2ccc(Cl)cc2)c(=O)c2sc3ccccc3c21)NC1CCCC1 | – | inactive: 4.93% [at 46.1 µM]
67 | CCOc1cc(N2CCOCC2)c(OCC)cc1NC(=O)COC(=O)CCOc1ccc(C(C)(C)C)cc1 | inconclusive: 1.12 µM [activator, single point] | –
68 | O=C(CC1COc2ccccc2O1)NCCc1ccccc1 (centres undefined) | – | inactive: 4.32%
69 | COC(=O)c1ccccc1NC(=O)c1cc2cc(C)ccc2n1C | inconclusive: 3.55 µM [inhibitor, single point] | –
